# Library screening results

Sequences of proteins named here, by UniProt entry; tags and fusion partners are left off.
UniProt E9BF75, entry or part of it: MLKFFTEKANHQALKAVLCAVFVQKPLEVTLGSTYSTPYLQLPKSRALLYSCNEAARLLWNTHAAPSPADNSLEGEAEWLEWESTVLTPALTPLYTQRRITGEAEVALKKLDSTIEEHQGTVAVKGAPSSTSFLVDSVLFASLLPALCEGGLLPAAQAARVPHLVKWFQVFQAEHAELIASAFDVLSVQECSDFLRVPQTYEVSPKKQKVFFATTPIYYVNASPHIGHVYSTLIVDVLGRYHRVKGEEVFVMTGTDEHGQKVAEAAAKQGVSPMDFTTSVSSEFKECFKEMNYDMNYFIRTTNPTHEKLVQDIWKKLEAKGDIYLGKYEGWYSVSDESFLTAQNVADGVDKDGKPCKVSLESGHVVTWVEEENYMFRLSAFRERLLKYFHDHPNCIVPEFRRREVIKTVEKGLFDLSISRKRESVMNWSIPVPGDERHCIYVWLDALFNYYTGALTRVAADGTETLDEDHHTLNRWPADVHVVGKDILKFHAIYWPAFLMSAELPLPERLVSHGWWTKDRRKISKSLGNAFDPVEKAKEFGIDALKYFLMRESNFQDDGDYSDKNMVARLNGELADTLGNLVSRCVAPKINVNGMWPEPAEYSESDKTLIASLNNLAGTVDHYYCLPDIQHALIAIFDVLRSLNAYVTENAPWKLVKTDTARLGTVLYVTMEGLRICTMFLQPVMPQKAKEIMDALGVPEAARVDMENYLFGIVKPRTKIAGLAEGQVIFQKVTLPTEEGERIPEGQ

A: 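Assay on Mycobacterium tuberculosis, filed only as a heat shock assay from Cornell; the read-out is not stated. The concentration is filed as 10 mM, unlikely as a test dose, so the dose is not known. The record gives no direction; compounds that gave an IC50 in retests scored well above the rest, so higher reads as stronger inhibition. Size under these conditions: about 69,000 compounds, about 930 of them at 50% or above in at least one test.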
B: 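Whole-cell assay for inhibitors of Mycobacterium tuberculosis growth, labelled Cornell in the record; the read-out is not stated. The concentration is filed as 10 mM, unlikely as a test dose, so the dose is not known. The record gives no direction; compounds strong in two other growth screens of this library score well above the rest, so higher reads as stronger inhibition. Of about 53,000 compounds tested this way, about 900 (1.7%) reached 50% or more in at least one test.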
C: 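Methionyl-tRNA synthetase (putative), Leishmania donovani (UniProt E9BF75). Primary screen of methionyl-tRNA synthetase; the read-out is not stated. The test concentration is not given. The values are filed as inhibition. Of about 68,000 compounds tested this way, about 24 (0.035%) reached 50% or more in at least one test.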

All values are in %. How 0% and 100% were set is not recorded. Most values in the screen are low, and negative values occur. The compounds are a random part of those screened. A dash means the value is not listed here; it may have been measured.

structure	A	B	C
CCc1n[nH]c(C2CN(C(=O)c3ccsc3)CCO2)n1 (stereo not shown)	7.424	-	7.639
Cc1nc(C)c(C(=O)NCCNc2ncccn2)s1	4.112	-2.649	22.29
CN(C)c1cc(CNC(=O)c2ccc(Br)cc2F)ccn1	-3.037	-	10.84
N#CC1(NC(=O)CN2CCC(c3ccnn3CCO)CC2)CCCC1	-9.454	-	18.31
O=C(NCCc1cccnc1)NCCc1cccs1	-46.21	2.333	9.524
O=C(O)C(F)(F)F.[H][C@@]12CCN(S(C)(=O)=O)CC[C@]1(C(=O)Nc1ccccc1)CCN2CC	7.702	8.066	-
CCOC(=O)c1n[nH]cc1CN1CCOC(Cc2ccccc2)C1 (stereo not shown)	-214.2	-	16.62
CCC(C(=O)NCc1ccncc1)N(c1cccc(Cl)c1)S(C)(=O)=O (stereo not shown)	-20.18	-4.455	0
COc1ccc2c(c1)CC(C(=O)N(C)Cc1noc3c1CCCC3)CO2 (stereo not shown)	-9.983	-1.38	13.07
O=S1(=O)C[C@@H]2[C@H](C1)N(Cc1ncc[nH]1)CCN2Cc1cccnc1	-	-	9.922
CN(C)c1ccc(C(=O)N(Cc2ccncc2)CC2CCCO2)nn1 (stereo not shown)	-206.4	-	17.22
Cn1c(CS(=O)(=O)Cc2cccc(Cl)c2)cc(=O)n(C)c1=O	26.1	-7.448	6.494
Cc1cc(C)n(CC2CCN(CC(O)Cn3cccn3)CC2)n1 (stereo not shown)	-1.661	-2.033	7.046
O=C(c1cccc(-c2ccc(F)cc2)c1)N1CCC2(CC1)[C@H](O)C[C@@H]2O	23.62	-12.07	3.581
CCS(=O)(=O)N1CCOC2(CCCN(Cc3ccccn3)C2)C1 (stereo not shown)	-	-	17.49
CCOC(=O)Cc1cs/c(=N/C(=O)COc2cnc(C)cc2O)[nH]1	-9.784	-11.92	2.266
O=C(NCC1CCN(CCc2ccccc2)C1)c1cc(Cl)c[nH]1 (stereo not shown)	12.27	-28.57	13.51
COCC(=O)N1C[C@@H](O)[C@H](N2CCN(c3ccccc3)CC2)C1	8.379	30.37	12.81
Cc1cc(C[C@@H]2CCC[C@H]2NCc2ccccc2C(F)(F)F)on1.O=C(O)CC(O)(CC(=O)O)C(=O)O	-15.54	12.28	-
COc1ccc(Oc2nccnc2C2CCN(C(C)=O)CC2)cc1	2.361	-10.46	9.375
CCC(NC(=O)CCNC(=O)c1ccccc1F)c1cc(C)ccn1 (stereo not shown)	-6.291	-22.88	16.77
O=C(COCC1CC1)Nc1cc(-c2ccc(Br)s2)n[nH]1	4.064	108.2	15.73
COCCCn1ccc(NC(=O)NCCn2ccnc2)n1	9.089	19.7	9.415
c1cnnc(N2CCCC2CNc2cnc3ccccc3n2)c1 (stereo not shown)	-3.709	-55.64	20.92
N#Cc1cccc(CN2CCO[C@@H]3CNC[C@@H]32)c1	-	-	14.29
Cc1nc(CN2CCCC2c2nc(C(C)C)no2)cs1 (stereo not shown)	-6.784	11.71	15.04
O=C(Cn1cccnc1=O)NC(Cc1cccs1)c1ccccn1 (stereo not shown)	-7.839	12.3	16.78
Cc1c(CC(=O)N2CCN(CC(F)(F)F)CC2)nnn1-c1ccccc1	-32.09	10.09	13.39
CC(C)c1nccn1C1CCCN(C(=O)c2ccc(=O)n(C)n2)C1 (stereo not shown)	12.31	-42.88	1.928
CC(C)(C)c1cc(NC(=O)CN2CCCC(Cn3cncn3)C2)on1 (stereo not shown)	-16.15	-3.551	13.12
O=C(O)C(F)(F)F.[H][C@]12CCC[C@@]1(COCC1CC1)CN(Cc1cnn(C)c1)C2	12.92	18.96	-
CN(Cc1ccco1)C(=O)CN1CCCCC1Cn1cccn1 (stereo not shown)	7.489	-	4.167
O=C(NC1CCCC1)[C@@H]1C[C@@H]2CCN(Cc3ccoc3)C[C@H]2O1	-	-	17.57
COC(=O)CCc1c(C)nn(-c2nc(C)cc(=O)[nH]2)c1C	103.1	23.13	9.804
CCOc1ncccc1NC(=O)N1CCN(CC(=O)NC)CC1	22.09	-	8.571
CCn1cc2c(n1)C(COC)CN(c1ccc(C)nn1)C2.O=C(O)C(F)(F)F.O=C(O)C(F)(F)F (stereo not shown)	3.449	13.84	-
COc1cccc(-c2n[nH]c3c2CN(C(=O)c2oc(C)cc2C)CC3)c1	30.82	21.99	11.08
O=C(CNc1cccc(S(=O)(=O)C(F)F)c1)Nc1ccccc1	15.48	-13.49	-52.04
CCN(CC)C(=O)CN1CCc2nc(C3CCNCC3)nc(NC)c2C1.Cl	-6.372	16.83	-
O=C(C1CCCO1)N1CCc2nnc(Cn3cccc3)n2CC1 (stereo not shown)	-23.13	17.87	13.41
Cc1ccc(N2C[C@@H]3CN(Cc4ccoc4)CCO[C@@H]3C2)nn1	-	-	-2.757
CCN(Cc1cnn(C)c1)C[C@H]1CC[C@@H](Cc2ccc(C#N)cc2)O1	-28.47	-5.072	4.393
O=C(c1ccc(F)c(Br)c1)N1CCCN2CCCC2C1 (stereo not shown)	-24.01	-	11.02
O=C(CCn1cccc1)NCc1ccc(CN2CCCCCC2)o1	10.21	-	11.7
CCCn1nnnc1CN(c1ccc(C)cc1)C(C)C	-44.03	13.52	4.359
CCc1cc(NCCc2cc(F)cc(F)c2)n2nccc2n1	3.123	-12.27	10.95
Cc1nc(CN2Cc3nccn3CC(COCC3CC3)C2)cs1 (stereo not shown)	-	-	9.774
CN(C)C1(CNc2ncc(Br)cn2)CCOCC1	-18.29	22.96	5.645
Cc1cc(NC(=O)N2CCOC(C(N)=O)C2)ccc1Br (stereo not shown)	-7.54	15.45	14.72
COCCCN1Cc2cccc(NC(=O)c3ccccc3Cl)c2C1	-26.7	-5.556	7.427
COCc1nc(-c2ccnc(N3CCNCC3)n2)no1.Cl.Cl	24.05	2.714	-
CCc1nc(C)c(C(=O)NCCNC(=O)c2cccs2)s1	-32.11	-34.44	5.714
CNc1nc(C(=O)N2CCC3(CCCN(C)C3=O)C2)cs1 (stereo not shown)	-5.964	-27.31	16.43
Cc1cc(C)n(-c2ccnc(N3CCC(C(=O)N4CCCC4)CC3)n2)n1	12.7	-28.37	11.51
Cc1ccc(N2CCC3(CCC(=O)N3)CC2)nn1	-10.38	-6.485	4.71
O=C(NCCCNCC1CNc2ccnn2C1)c1ccccc1 (stereo not shown)	5.482	-	14.86
CC1=C[C@@H](CNS(C)(=O)=O)[C@H](C(C)C)C[C@H]1CC(=O)NCCN(C)C	3.667	-	12.09
[H][C@@]12CN(C(=O)c3ccoc3)C[C@]1([H])CN(c1ncccn1)C2	-13.36	-3.007	-
CC(C)C(=O)NC1CCN(CCO)CC1	-9.467	1.327	-1.418

7 of the entries, repeated:

| structure | A | B | C |
|---|---|---|---|
| `O=C(NC1CCCC1)[C@@H]1C[C@@H]2CCN(Cc3ccoc3)C[C@H]2O1` | - | - | 17.57 |
| `CN(C)c1ccc(C(=O)N(Cc2ccncc2)CC2CCCO2)nn1` (stereo not shown) | -206.4 | - | 17.22 |
| `O=C(c1ccc(F)c(Br)c1)N1CCCN2CCCC2C1` (stereo not shown) | -24.01 | - | 11.02 |
| `CC1=C[C@@H](CNS(C)(=O)=O)[C@H](C(C)C)C[C@H]1CC(=O)NCCN(C)C` | 3.667 | - | 12.09 |
| `COc1cccc(-c2n[nH]c3c2CN(C(=O)c2oc(C)cc2C)CC3)c1` | 30.82 | 21.99 | 11.08 |
| `CNc1nc(C(=O)N2CCC3(CCCN(C)C3=O)C2)cs1` (stereo not shown) | -5.964 | -27.31 | 16.43 |
| `CCN(Cc1cnn(C)c1)C[C@H]1CC[C@@H](Cc2ccc(C#N)cc2)O1` | -28.47 | -5.072 | 4.393 |

Data taken from ChEMBL document CHEMBL3988442, “University of Dundee, Small-Polar-MMV Screening Library” (2021).